Laboratory results taken from patent publication US20220031806A1 (Five Prime, published 2022).
No constants are given. Whether binding was seen depends on the method and setting. Some entries that bind do so weakly or less than the wild type. Where a sequence is shown, tags or fusion partners need not be part of it.

Amino acid sequences for entries named in this document (tags omitted). Residues count along the entry.
UniProt P31041, residues 20-218: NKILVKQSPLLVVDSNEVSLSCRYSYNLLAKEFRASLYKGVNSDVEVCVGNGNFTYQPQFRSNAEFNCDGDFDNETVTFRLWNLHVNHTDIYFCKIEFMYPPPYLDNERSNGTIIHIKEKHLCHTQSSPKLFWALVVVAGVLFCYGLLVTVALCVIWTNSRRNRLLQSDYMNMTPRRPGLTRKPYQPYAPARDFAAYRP

Target: mouse CD28 on mouse splenic CD4+ and CD8+ T cells (mouse) (UniProt P31041)
Assay: flow cytometry receptor occupancy on mouse splenocytes

B1: mouse surrogate fusion protein comprising the extracellular domain (ECD) of murine CD80 linked to the Fc domain of mouse IgG2a wild type (mCD80-Fc) (Fc fusion)
chain: VDEQLSKSVKDKVLLPCRYNSPHEDESEDRIYWQKHDKVVLSVIAGKLKVWPEYKNRTLYDNTTYSLIILGLVLSDRGTYSCVVQKKERGTYEVKHLALVKLSIKADFSTPNITESGNPSADTKRITCFASGGFPKPRFSWLENGRELPGINTTISQDPESELYTISSQLDFNTTRNHTIKCLIKYGDAHVSEDFTWEKPPEDPPDSKNEPRGPTIKPCPPCKCPAPNLLGGPSVFIFPPKIKDVLMISLSPIVTCVVVDVSEDDPDVQISWFVNNVEVHTAQTQTHREDYNSTLRVVSALPIQHQDWMSGKEFKCKVNNKDLPAPIERTISKPKGSVRAPQVYVLPPPEEEMTKKQVTLTCMVTDFMPEDIYVEWTNNGKTELNYKNTEPVLDSDGSYFMYSKLRVEKKNWVERNSYSCSVVHEGLHNHHTTKSFSRTPGK
notes: also called Murine CD80 ECD Fusion Molecules; Mouse CD80 ECD mouse Fc IgG2a
With B1 the binding was “binds”.
